Data on two substances can be found in US12535491B2, “Vaccine comprising protein-targeted (PT) extracellular DNA isolated from bacterial matrix” (priority 2018, dated 2026).

The data set relates to heat-resistant proteins of human plasma. The experiment in a line: LC/MS of heat-resistant proteins in plasma after exposure to proteinase K and boiling. The conditions noted are these: for Effect (N-plasma + pk vs N-plasma): change on adding proteinase K to normal plasma.

With CO3_HUMAN [CO3_HUMAN [3]], the “Effect (N-plasma + pk vs N-plasma)” value was “↑”. In addition, the “N-plasma + pk” value (LC/MS, control plasma with added proteinase K, heated at 100° C. for 5 minutes) is 93.
Turning to PLMN_HUMAN, the “Effect (N-plasma + pk vs N-plasma)” value is reported as “↑”.
